In US12011433B2 (UNIVERSITÁ DEGLI STUDI DI BARI “ALDO MORO”, priority 2016, dated 2024):
At least one compound was matched to its structure with a doubt left.

Test: GALMOF0 chemical stability in buffers by HPLC
Type: physicochemical
Details: 48 h, 37° C.
Method: HPLC analyses were performed to determine the chemical stability and the purity grade of GALMOF0 as a representative compound of the set.
Aminica column was used, CH3CN/10 mM Tris-HCl (pH=8) (15:85) was used as mobile phase, T=40° C.; λ=254 nm.
200 μL of 2.5 mg/mL di GALMOF0 in CH3CN were added to 1800 μL of a buffer (pH=1, 3, 7.3 and 8). Each sample was kept stirred at 37° C. Buffer with pH=1 and 3, obtained with 0.1N HCl and 50 mM HEPES, was selected to simulate the chemical stability at gastric level, whereas pH=7.3 and 8, obtained by 50 mM TRIS-HCl, simulated its stability in the blood and gut, respectively.
At 15, 30, 60 min and 48 h, 300 μL of the sample were withdraw, diluted with 300 μL of CH3CN (final concentration=[…]) and tested by HPLC.

COc1ccc(-c2noc(CC(=O)OCC3OC(O)C(O)C(O)C3O)c2-c2ccc(OC)cc2)cc1 [GALMOF0, ((2S,3R,4S,6R)-3,4,5,6-tetrahydroxytetrahydro-2H-pyrano-2-yl-) methyl-(2-(3,4-di(4-metoxyphenyl)isoxazol-5-yl)acetate]
another peak at […] in the chromatogram (pH=7.3): 32% | another peak at […] in the chromatogram (pH=8): 53%
